Results are given in words; binding and its absence hold for the method and conditions named. Some binding calls cover weakened binding; strength is not graded here. For some assays here: Where a sequence is shown, tags or fusion partners need not be part of it.

Sequences of proteins named here, by UniProt entry; tags and fusion partners are left off. A change or cut given only in a name is not applied to a line headed by its entry.
UniProt Q9NPY3: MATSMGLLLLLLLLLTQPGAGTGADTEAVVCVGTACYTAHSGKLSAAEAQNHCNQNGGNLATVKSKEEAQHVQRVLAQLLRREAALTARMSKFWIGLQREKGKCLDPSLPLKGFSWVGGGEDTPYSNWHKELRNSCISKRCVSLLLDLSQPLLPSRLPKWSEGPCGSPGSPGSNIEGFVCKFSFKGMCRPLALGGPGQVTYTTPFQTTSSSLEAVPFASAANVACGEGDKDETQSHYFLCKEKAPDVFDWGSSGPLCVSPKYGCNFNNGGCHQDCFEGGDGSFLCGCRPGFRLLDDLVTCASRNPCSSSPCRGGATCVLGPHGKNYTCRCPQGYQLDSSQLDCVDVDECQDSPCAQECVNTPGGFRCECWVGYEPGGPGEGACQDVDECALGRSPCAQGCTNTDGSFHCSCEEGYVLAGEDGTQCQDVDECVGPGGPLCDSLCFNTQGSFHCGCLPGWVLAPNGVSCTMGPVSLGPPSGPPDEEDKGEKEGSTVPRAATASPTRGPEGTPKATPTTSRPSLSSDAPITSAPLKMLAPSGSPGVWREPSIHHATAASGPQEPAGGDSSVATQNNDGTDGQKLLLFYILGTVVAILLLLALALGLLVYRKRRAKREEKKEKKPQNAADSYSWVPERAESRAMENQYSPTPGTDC

The target in assay [1] is T1, IGFBP7-His protein (Homo sapiens (Human)) (UniProt Q16270).
T1 sequence: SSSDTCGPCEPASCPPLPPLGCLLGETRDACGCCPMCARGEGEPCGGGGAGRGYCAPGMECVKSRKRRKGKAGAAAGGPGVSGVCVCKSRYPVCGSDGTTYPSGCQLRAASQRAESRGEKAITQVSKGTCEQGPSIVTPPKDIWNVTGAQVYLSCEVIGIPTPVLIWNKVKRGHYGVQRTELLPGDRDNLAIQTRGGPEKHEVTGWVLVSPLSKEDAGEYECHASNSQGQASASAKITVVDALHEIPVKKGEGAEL
Briefly: ELISA: IGFBP7-His coated wells, CD93-His, then MMRN2-Ig (FIG. 28C).

Assay [2] deals with T2, human IGFBP7 (expression construct in the GSRA library; endogenous in HUVEC lysate; exogenous IGFBP7 protein) (human) (UniProt Q16270).
T2 sequence: T1 sequence
Briefly: human genome-scale receptor array (GSRA): CD93-Ig on cells transfected with the IGFBP7 construct, image of the well.

For assay [3], the target named is T2, human IGFBP7 (expression construct in the GSRA library; endogenous in HUVEC lysate; exogenous IGFBP7 protein) (human). Briefly: human genome-scale receptor array (GSRA) screened with CD93-Ig (FIG. 4A).
For assay [4] the target is unchanged. Briefly: human genome-scale receptor array (GSRA), FIG. 4A.
Assay [5] concerns the target T3, IGFBP7 protein (R&D Systems), labelled with a His-Tag Labeling Kit for MST (human) (UniProt Q16270).
T3 sequence (chain, RED-tris-NTA fluorescent dye bound to the His tag): T1 sequence
Briefly: microscale thermophoresis (MST), CD93 titrated against 10 nM labelled IGFBP7. (In general: Microscale thermophoresis detects binding through changes in fluorescence in a small temperature gradient.)

Regarding “CD93-His protein (from UniProt Q9NPY3 24-580) (receptor)”, the binding entry in assay [1] is reported as “binds”.
On to “CD93-Ig (probe of the human genome-scale receptor array) (from UniProt Q9NPY3 22-580) (Fc fusion)”, for which the binding result in assay [2], in assay [3] and in assay [4] was “binds” throughout.
“recombinant human CD93 protein (R&D Systems) (from UniProt Q9NPY3 24-580) (receptor)”: the binding entry in assay [5] was “binds”.

The values are drawn from patent US20220235136A1, “METHODS AND COMPOSITIONS FOR TREATING A DISEASE OR DISORDER” (YALE UNIVERSITY, priority 2019, published 2022).
